Test results reported in the supplement of paper PMC12823440, “Inhibitors supercharge kinase turnover through native proteolytic circuits” (Nature, 2025).
Counter-ions that a name gives are not always drawn. The list shows a part of the results. Hit calls seldom repeat between salt and free forms of one compound.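 Kinases were expressed as nanoluciferase fusions in K562 cells and luminescence was read every 4 h between 2 and 18 h as percent of control, DMSO set to 100% and a positive control to 0%. A time point counts as decreased when the signal drops significantly (2 sigma). The hit call is the authors' own, does not follow from the count of time points alone, and its rule is not shown.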

Chains of the proteins cited; added tags and fusions are not shown. Lines headed by an entry give the natural chain unless they say otherwise; changes in a name come on top.
UniProt Q9UQM7, whole entry: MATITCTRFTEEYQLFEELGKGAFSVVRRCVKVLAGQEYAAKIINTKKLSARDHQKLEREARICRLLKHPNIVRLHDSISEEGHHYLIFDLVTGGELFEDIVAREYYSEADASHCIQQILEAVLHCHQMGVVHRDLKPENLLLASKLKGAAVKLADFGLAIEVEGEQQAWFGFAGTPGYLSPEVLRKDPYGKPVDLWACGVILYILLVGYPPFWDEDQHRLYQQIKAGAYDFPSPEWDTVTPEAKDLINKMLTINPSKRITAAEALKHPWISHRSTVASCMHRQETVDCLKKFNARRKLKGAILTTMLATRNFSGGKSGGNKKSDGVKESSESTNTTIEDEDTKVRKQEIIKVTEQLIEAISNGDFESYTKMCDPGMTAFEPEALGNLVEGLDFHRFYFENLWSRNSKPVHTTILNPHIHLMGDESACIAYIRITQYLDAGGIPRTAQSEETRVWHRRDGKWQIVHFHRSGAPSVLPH
UniProt Q13555: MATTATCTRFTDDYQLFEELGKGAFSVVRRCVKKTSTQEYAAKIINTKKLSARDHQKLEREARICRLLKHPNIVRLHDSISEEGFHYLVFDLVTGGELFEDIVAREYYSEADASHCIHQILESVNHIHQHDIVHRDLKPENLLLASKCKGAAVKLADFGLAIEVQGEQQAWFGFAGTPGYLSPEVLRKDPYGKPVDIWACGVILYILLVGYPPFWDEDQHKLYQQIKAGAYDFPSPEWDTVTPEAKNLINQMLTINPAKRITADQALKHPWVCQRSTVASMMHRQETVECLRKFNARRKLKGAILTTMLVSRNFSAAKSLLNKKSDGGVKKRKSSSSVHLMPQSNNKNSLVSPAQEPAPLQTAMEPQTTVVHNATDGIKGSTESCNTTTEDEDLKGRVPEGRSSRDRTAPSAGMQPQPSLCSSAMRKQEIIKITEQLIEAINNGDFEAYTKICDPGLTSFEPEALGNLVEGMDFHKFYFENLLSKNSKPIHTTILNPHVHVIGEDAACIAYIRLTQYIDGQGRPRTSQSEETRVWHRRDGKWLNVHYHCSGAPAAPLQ
UniProt Q15131: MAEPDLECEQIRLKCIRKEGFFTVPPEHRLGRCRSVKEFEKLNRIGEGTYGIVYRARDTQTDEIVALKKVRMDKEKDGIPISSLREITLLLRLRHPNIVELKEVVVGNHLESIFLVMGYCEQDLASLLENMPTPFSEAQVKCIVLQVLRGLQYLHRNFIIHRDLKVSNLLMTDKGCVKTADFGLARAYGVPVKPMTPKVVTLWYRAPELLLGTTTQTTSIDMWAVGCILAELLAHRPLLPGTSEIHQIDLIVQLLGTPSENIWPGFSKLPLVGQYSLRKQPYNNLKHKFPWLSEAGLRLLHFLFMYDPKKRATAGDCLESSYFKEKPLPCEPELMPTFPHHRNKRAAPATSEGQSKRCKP
UniProt Q00526: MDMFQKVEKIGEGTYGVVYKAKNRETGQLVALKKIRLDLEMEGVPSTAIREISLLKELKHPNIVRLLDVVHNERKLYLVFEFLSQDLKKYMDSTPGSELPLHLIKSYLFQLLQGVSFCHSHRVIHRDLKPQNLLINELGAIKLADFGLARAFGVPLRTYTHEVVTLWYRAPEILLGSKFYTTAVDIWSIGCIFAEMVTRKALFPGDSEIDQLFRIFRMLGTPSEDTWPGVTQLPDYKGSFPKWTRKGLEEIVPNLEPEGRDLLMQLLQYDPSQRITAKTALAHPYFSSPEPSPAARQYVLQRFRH
UniProt Q00535, whole entry, looked up: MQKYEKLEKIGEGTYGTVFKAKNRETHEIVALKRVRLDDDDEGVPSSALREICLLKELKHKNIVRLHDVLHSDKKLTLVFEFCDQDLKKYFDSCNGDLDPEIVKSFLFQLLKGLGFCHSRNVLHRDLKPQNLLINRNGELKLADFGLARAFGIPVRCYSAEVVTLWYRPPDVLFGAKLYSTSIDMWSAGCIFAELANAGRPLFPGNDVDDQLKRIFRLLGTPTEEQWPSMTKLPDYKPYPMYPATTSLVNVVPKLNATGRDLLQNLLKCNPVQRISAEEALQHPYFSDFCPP
UniProt Q00534, whole entry: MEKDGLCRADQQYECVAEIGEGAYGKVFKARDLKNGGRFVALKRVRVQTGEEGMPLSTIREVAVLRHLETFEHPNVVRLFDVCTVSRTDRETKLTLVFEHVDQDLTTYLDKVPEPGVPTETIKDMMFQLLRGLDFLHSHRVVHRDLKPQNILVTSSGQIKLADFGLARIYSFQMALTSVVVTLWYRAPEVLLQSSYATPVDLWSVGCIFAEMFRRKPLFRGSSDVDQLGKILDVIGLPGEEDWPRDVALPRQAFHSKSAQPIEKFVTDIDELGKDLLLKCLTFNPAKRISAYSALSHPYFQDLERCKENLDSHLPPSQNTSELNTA
UniProt O96017, whole entry: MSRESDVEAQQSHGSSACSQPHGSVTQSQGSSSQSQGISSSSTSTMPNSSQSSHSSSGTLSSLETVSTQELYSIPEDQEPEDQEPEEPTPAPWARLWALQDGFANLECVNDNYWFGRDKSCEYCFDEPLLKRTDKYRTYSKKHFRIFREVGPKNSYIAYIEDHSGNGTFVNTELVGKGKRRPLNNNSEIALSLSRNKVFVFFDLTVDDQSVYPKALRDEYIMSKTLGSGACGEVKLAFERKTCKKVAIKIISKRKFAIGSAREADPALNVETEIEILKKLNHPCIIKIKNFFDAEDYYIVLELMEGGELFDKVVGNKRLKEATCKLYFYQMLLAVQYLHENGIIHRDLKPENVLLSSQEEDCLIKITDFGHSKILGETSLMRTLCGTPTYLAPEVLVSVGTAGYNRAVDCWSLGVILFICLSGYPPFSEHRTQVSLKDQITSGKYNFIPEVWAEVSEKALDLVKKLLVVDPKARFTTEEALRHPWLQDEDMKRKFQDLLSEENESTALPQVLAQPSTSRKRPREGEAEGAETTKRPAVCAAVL
UniProt P41240: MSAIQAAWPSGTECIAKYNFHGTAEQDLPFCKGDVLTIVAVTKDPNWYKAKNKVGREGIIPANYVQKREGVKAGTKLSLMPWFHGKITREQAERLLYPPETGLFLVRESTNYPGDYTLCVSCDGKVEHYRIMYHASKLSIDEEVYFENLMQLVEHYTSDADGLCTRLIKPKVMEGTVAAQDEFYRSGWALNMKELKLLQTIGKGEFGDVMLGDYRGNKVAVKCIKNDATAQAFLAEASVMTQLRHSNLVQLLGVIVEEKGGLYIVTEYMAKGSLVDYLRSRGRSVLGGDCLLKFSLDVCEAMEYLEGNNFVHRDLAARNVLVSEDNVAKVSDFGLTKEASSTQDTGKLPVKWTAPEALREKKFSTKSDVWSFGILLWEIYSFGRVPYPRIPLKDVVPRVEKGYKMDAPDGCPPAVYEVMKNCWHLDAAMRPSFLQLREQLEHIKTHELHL
UniProt P48729: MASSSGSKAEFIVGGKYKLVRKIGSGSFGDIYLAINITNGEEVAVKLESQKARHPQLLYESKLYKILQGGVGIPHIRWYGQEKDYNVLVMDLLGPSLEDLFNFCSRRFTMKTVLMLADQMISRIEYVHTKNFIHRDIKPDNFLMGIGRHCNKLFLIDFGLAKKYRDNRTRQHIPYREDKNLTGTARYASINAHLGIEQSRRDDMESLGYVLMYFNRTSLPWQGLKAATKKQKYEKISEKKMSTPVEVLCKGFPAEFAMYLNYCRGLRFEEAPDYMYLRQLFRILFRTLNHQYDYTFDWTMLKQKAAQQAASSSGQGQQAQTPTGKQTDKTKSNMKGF
UniProt Q9Y463, whole entry, looked up: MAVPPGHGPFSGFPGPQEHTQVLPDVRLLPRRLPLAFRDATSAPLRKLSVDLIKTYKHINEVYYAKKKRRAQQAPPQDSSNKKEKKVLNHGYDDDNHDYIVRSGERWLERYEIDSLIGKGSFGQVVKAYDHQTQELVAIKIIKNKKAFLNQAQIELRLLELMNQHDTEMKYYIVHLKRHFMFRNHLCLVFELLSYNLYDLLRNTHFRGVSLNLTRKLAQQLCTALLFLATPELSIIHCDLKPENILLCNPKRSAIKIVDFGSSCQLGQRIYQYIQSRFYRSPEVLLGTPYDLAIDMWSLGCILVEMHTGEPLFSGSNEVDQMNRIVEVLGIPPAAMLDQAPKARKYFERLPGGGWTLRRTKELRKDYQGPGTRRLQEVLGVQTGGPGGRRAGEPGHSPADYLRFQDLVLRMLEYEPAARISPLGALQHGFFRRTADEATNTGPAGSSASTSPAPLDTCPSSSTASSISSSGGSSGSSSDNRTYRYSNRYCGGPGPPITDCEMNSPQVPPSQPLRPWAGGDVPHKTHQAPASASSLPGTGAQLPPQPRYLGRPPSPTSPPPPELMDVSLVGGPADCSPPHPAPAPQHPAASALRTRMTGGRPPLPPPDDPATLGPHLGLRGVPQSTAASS
UniProt Q92630: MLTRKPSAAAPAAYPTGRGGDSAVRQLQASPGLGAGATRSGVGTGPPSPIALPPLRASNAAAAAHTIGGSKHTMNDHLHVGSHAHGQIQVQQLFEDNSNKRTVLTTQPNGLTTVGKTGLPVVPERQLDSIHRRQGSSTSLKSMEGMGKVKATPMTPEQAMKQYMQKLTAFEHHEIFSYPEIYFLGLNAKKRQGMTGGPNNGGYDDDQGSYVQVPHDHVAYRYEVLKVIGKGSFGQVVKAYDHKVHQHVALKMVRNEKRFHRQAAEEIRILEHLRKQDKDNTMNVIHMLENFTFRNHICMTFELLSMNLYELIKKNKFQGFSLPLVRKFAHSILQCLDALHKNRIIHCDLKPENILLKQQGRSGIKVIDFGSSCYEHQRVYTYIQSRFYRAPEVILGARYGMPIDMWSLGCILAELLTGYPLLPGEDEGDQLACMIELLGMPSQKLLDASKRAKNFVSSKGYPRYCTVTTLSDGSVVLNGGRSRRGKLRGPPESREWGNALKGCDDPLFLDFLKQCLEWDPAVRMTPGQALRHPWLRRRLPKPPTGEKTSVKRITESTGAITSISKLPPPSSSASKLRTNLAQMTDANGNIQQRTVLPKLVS
UniProt P48730: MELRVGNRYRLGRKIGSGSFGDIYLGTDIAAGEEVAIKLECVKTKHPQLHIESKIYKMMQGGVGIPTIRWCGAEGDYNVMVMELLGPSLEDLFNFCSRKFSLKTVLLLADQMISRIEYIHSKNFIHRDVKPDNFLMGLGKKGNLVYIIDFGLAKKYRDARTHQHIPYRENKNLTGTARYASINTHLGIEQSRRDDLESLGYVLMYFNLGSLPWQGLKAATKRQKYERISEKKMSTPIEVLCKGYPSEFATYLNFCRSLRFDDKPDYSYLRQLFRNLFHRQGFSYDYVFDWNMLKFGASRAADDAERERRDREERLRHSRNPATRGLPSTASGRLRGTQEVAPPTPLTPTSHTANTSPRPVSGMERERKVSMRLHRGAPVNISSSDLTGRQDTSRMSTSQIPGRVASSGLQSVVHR
UniProt Q08345: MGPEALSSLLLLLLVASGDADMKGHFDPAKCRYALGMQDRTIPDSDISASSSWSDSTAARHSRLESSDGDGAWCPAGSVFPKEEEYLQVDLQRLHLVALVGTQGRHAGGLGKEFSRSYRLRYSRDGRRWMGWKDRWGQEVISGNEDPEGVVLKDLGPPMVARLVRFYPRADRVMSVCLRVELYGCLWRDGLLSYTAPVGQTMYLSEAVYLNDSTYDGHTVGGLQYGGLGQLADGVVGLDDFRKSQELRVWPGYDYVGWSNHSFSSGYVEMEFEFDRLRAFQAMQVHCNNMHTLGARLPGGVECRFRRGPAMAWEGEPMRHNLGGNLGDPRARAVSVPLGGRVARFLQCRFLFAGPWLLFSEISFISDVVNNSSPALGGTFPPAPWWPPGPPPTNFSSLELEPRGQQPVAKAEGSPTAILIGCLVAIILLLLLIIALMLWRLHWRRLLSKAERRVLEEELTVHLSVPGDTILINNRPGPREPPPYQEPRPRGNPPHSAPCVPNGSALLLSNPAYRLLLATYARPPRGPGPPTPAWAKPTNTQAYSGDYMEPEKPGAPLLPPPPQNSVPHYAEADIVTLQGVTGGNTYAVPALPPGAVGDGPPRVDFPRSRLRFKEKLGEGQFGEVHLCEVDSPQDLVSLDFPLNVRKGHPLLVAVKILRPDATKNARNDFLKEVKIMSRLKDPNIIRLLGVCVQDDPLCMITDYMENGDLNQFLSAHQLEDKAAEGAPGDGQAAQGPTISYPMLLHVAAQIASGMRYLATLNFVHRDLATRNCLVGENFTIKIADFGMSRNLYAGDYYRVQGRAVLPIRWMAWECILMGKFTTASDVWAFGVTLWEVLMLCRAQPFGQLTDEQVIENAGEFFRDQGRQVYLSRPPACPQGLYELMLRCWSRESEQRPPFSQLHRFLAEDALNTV

Experiments:
Assay in all cases: number of time points (of 5) at which kinase-Nluc abundance scored as decreased, DMSO-normalised (count); higher = more persistent destabilization
Settings in all cases: K562; 2-18 h
CAMK2A = CAMK2A (UniProt Q9UQM7)
CAMK2G = CAMK2G (UniProt Q13555)
CDK10 = CDK10 (UniProt Q15131)
CDK2 = CDK2 (UniProt P24941)
CDK3 = CDK3 (UniProt Q00526)
CDK5 = CDK5 (UniProt Q00535)
CDK6 = CDK6 (UniProt Q00534)
CHEK2 = CHEK2 (UniProt O96017)
CSF1R = CSF1R (UniProt P07333)
CSK = CSK (UniProt P41240)
CSNK1A1 = CSNK1A1 (UniProt P48729)
DYRK1B = DYRK1B (UniProt Q9Y463)
DYRK2 = DYRK2 (UniProt Q92630)
CSNK1D = CSNK1D (UniProt P48730)
DDR1 = DDR1 (UniProt Q08345)
EGFR = EGFR (UniProt P00533)
EGFR_G719S = EGFR_G719S (UniProt P00533)
EGFR_G719S_T790M = EGFR_G719S_T790M (UniProt P00533)
EGFR_L718V = EGFR_L718V (UniProt P00533)
EGFR_L858R = EGFR_L858R (UniProt P00533)

Measured: number of time points

O=S(=O)(NCCNC/C=C/c1ccc(Br)cc1)c1cccc2cnccc12 [H-89 (dihydrochloride)] (10 µM)
not listed: CSNK1D | DDR1 | EGFR | EGFR_G719S | EGFR_G719S_T790M | EGFR_L718V | EGFR_L858R
0: all other assays above

CC(C)n1cnc2c(NCc3cccc(C(F)(F)F)c3)ncnc21 [Longdaysin] (10 µM)
0: all assays above

O=C(NOC[C@H](O)CO)c1ccc(F)c(F)c1Nc1ccc(I)cc1F (2.5 µM)
0: all assays above

COc1cc(N2CCC(N)CC2)ccc1Nc1ncc(Cl)c(-c2c[nH]c3ccccc23)n1 (2.5 µM)
0: all assays above

CNC(=O)c1ccccc1Nc1nc(Nc2ccc(N3CCOCC3)cc2OC)ncc1Cl (2.5 µM)
not listed: CSNK1A1 | EGFR | EGFR_G719S | EGFR_G719S_T790M | EGFR_L718V | EGFR_L858R
0: all other assays above

C=CC(=O)N1CC[C@H](n2nc(C#Cc3cc(OC)cc(OC)c3)c3c(N)ncnc32)C1 [Futibatinib] (10 µM)
0: all assays above

Cc1ccc2c(Nc3cccc(OC(F)(F)F)c3)nccc2c1Nc1ncccc1-c1ncnc2[nH]cnc12 (10 µM)
0: all assays above

CC(C)(C)n1nc(Cc2cccc3ccccc23)c2c(N)ncnc21 (10 µM)
not listed: CSNK1A1
0: all other assays above

CN(C)CCOc1ccc(-c2nc(-c3ccncc3)c(-c3ccc4c(c3)CC/C4=N\O)[nH]2)cc1 (10 µM)
3: DYRK1B
0: all other assays above

Cc1ccc2c(Nc3ccc(Cl)cc3)nccc2c1Nc1ncccc1-c1ncnc2nc[nH]c12 [Raf inhibitor 1] (2.5 µM)
0: all assays above

COc1ccc2c(NC(=O)Nc3cccc(C(F)(F)F)n3)ccnc2c1 (10 µM)
not listed: CSNK1A1 | CSNK1D | EGFR | EGFR_G719S | EGFR_G719S_T790M | EGFR_L718V | EGFR_L858R
0: all other assays above

CNC(=O)c1cccc(-c2ccc3c(N4CCOC[C@@H]4C)nc(N4CCOC[C@@H]4C)nc3n2)c1 [Vistusertib] (2.5 µM)
3: CDK3 | CHEK2 | CSNK1A1 | EGFR_G719S | EGFR_G719S_T790M
2: EGFR | EGFR_L858R
4: CSF1R | CSNK1D | DYRK2
not listed: DDR1
0: all other assays above

CC#CC(=O)N[C@H]1CCCN(c2c(F)cc(C(N)=O)c3[nH]c(C)c(C)c23)C1 [Branebrutinib] (10 µM)
0: all assays above

CCn1cc(-c2ccnc3[nH]c(-c4cccc(CN(C)C)c4)cc23)c(-c2ccc(NC(=O)N(C)C)cc2)n1 (2.5 µM)
not listed: CSNK1D
0: all other assays above

COc1cc(OC)c(F)c(COc2cnc(Nc3cnn(CCO)c3)nc2)c1F (2.5 µM)
1: DYRK2 | EGFR_L718V
2: CAMK2G | CHEK2 | EGFR_L858R
0: all other assays above

Cc1cccc(Cn2nc(C3CC3)c3c(NC(=O)c4cnc5cc(OCCN6CCN(C)CC6)ccn45)cccc32)n1 (10 µM)
not listed: CSF1R
0: all other assays above
